The values that follow are results of earlier work, collected in article PMC11510164 (Pharmaceuticals, 2024).

For this series the following is noted: 25 °C, depending on source and conditions.

With `CC(C)Cc1ccc(C(C)C(=O)O)cc1` (stereo not shown) [IBU, Ibuprofen, reference compound], the water solubility is 40 to 70 µg/mL.
